# US20260265300A1, “TARGETING PRAC1 IN STEROID HORMONE DRIVEN CANCER” (Fred Hutchinson Cancer Center, priority 2023, published 2026)
# By UniProt entry, the sequences of proteins in these tests, tags left out. Residues count along the entry.
# UniProt P10275, residues 664-920: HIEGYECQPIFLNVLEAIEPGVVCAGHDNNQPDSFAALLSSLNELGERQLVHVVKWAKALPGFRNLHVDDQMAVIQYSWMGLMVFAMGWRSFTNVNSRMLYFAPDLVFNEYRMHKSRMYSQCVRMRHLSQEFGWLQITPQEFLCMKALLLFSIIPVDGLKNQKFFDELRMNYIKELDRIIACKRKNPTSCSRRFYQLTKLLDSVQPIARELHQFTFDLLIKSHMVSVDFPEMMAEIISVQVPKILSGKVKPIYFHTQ
# No constants are given. Whether binding was seen depends on the method and setting. Some entries that bind do so weakly or less than the wild type.
# Legend:
# [1] = molecular target: androgen receptor (AR) ligand binding domain (UniProt P10275); assay: crystal structure (legend of FIG. 7B)
# [2] = molecular target: androgen receptor (AR) ligand binding domain (UniProt P10275); assay: crystal structure
# [3] = molecular target: androgen receptor (AR) ligand binding domain (UniProt P10275); assay: crystal structure (legend of FIG. 6B)
# [4] = molecular target: androgen receptor (AR) ligand binding domain (UniProt P10275); assay: recombinant protein-based assay (legend of FIG. 6C)
# [5] = molecular target: androgen receptor (AR) ligand binding domain (UniProt P10275); assay: surface plasmon resonance, recombinant proteins, 0.5 M NaCl
binding [1],binding [2],binding [3],binding [4],binding [5],Binder
binds,binds,binds,,,LFSLIRKHLL [PRAC1 peptide … (SEQ ID NO:37)]
,,,binds,binds,MLACKVRQAGFWSPPLQREQRCCAPISQIKDRPILLPPRVLFSLIRKHLL [PRAC1]
